# According to patent publication US20220273810A1 (IMCARE BIOTECH, published 2022):
# No constants are given. Whether binding was seen depends on the method and setting. Some entries that bind do so weakly or less than the wild type.
# T1: AS-SPIK (Abnormal Secreted serine protease inhibitor Kazal) (Homo sapiens (Human)), P00995
# T1 chain: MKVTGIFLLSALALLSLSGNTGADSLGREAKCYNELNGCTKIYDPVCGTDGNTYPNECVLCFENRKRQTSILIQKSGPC
# What was measured:
# Conditions in all cases: remark: other sources report otherwise
# [1] = molecular target: T1, AS-SPIK (Abnormal Secreted serine …); assay: sandwich ELISA, S2-3 medium, complex captured on polyclonal anti-SPIK plate
# [2] = molecular target: T1, AS-SPIK (Abnormal Secreted serine …); assay: ELISA on a plate immobilised with partially purified AS-SPIK from S2-3 cells, OD450nm; antibody concentration not given
# [3] = molecular target: T1, AS-SPIK (Abnormal Secreted serine …); assay: test of monoclonal antibodies of FIG. 1 (described in Example 1)
# [4] = molecular target: T1, AS-SPIK (Abnormal Secreted serine …); assay: ELISA, plate-immobilized partially purified AS-SPIK from S2-3 cells
binding [1],binding [2],binding [3],binding [4],Binder
binds,binds,binds,binds,"IM-B10 (antibody, V domains shown) VH: QSVKESEGGLFKPTDTLTLTCTVSGFSLSSYGVSWVRQAPGKGLEWIGSIWSGGTTDYASWAKSRSTITRNTNENTVTLKVTSLTAADTATYFCARGGYDYGYASNIWGPGTLVTVSSGQPKAPS VL: AYDMTQTPASVEVAVGGTVTIKCQASESISSYLSWYQQKPGQPPKLLIYRASTLASGVPSRFSGSGSGTEFTLTISDGQCDDAATYYCQQGYSVSNVDNIFGGGTEVVVKGDPVAPTVLIFPPSAD"
binds,binds,binds,binds,"IM-A1 (antibody, V domains shown) VH: QSVKESEGGLFKPTDTLTLTCTVSGFSLSSNAISWVRQAPGNGLEWIGAIGSSGSTYYASWAKSRSTVTRNTNLNTVTLKMTSLTAADTATYFCARWENIGYTNVRLDLWGQGTLVTVSSGQPKAPSVFPLAPCCGDTPSS VL: AYDMTQTPASVEVAVGGTVTIKCQASQSISTALAWYQQKPGQPPKLLIYGASTLASGVSSRFKGSGSGTQFTLTISGVECADAATYYCQQGYSTSDVDNAFGGGTEG"
